# Results deposited as PubChem BioAssay AID720505 (Drosophila RNAi Screening Center, 2013).
# Purpose: 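Fly regulators or components of the CRAC channel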 (primary screen)
# Cell system: Drosophila S2R+ cells
# Reagent: long dsRNA against Drosophila genes
# Treatment: thapsigargin (2 µM) in calcium-free buffer to empty internal stores, then 2 mM calcium added back
# Measured: 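Stores emptied by 2 µM thapsigargin without calcium, then 2 mM calcium re-added; fluo-4 fluorescence followed by FLIPR in 384-well plates, per-well averaged endpoint, raw; two screen passes, some wells retested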
# Scale: calcium signal and retest calcium signal: higher = more calcium entry after store depletion
# Call rule: 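About 1500 genes called as lowering calcium entry, by varying amounts, judged against per-plate control wells with STIM1 as positive and Rho1 as negative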
# Calls: active = called as lowering calcium entry; inactive = not called
# The deposit covers about 20,000 reagents; shown is an unselected part of those that have a named target and a result. Over the whole deposit, about 2,100 (10%) are marked active. 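Raw plate signals without normalisation; calls rest on control-based scores that were not deposited; replicate 2 separates called from uncalled poorly.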 Unmarked entries are inactive. Names joined by + are all predicted targets of the reagent. The record does not give: the amount of reagent, the time to read-out.
gene knocked down,DRSC id,"calcium signal, replicate 1","calcium signal, replicate 2","retest calcium signal, replicate 1","retest calcium signal, replicate 2"
CG14422,DRSC17919,109,142,,
mio (missing oocyte),DRSC00692,58.7 (active),148,,
mio (missing oocyte),DRSC22056,78,206,,
CG42583,DRSC22937,134,167,,
CG17684,DRSC07724,116,91.8,,
CG17684,DRSC21166,68.5 (active),201,,
Gmppb (GDP-mannose pyrophosphorylase B),DRSC12169,99.8,136,,
CG34217,DRSC05083,127,155,,
ND-18 (NADH dehydrogenase (ubiquinone) 18 kDa subunit),DRSC19441,72.3 (active),163,,
MED19 (Mediator complex subunit 19),DRSC10516,131,84.5,,
CG43121,DRSC10457,94.5,80.1,,
tank,DRSC00461,179,111,,
CR44003 + CG44002,DRSC00523,115,177,,
CR44003 + CG44002,DRSC00606,98.4,131,,
"SdhD (Succinate dehydrogenase, subunit D)",DRSC14215,142,133,,
Jupiter,DRSC15204,94.9,141,,
Jupiter,DRSC15205,151,106,,
Jupiter,DRSC15389,166,115,,
Muc68E (Mucin 68E),DRSC09146,6655 (active),186,88.5,101
CG13838,DRSC14688,244,151,5383,166
CG12224,DRSC14480,176,92.1,,
CG11069,DRSC14289,178,252,,
CG10562,DRSC14257,65.9 (active),81.9,,
CG16989,DRSC18535,84.2,139,,
Tie (Tie-like receptor tyrosine kinase),DRSC08702,73.1,55.6,,
CG13293,DRSC09967,112,93.1,,
Sin1 (SAPK-interacting protein 1),DRSC05965,148,130,,
CG42490 (retired record),DRSC01649,74.3,115,,
Arr2 (Arrestin 2),DRSC09670,83.9,86.1,,
plh (pasang lhamu),DRSC12294,108,134,,
Paip1 (Poly(A) binding protein interacting protein 1),DRSC07302,67 (active),129,,
pb (proboscipedia),DRSC12629,136,173,,
CG12662,DRSC17865,293,78.3,,
TyrR (Tyramine receptor),DRSC16242,65.2 (active),94.9,,
CG5543,DRSC04511,82.7,88.4,,
CG33159,DRSC08199,104,111,,
Mnt,DRSC17894,122,179,,
Mnt,DRSC18480,160,104,,
CG12581,DRSC12206,156,119,,
CG12581,DRSC12207,123,158,,
pk (prickle),DRSC06178,134,109,,
pk (prickle),DRSC07664,110,162,,
pk (prickle),DRSC22156,105,192,,
CG9733,DRSC16549,139,120,,
HP6 (Heterochromatin protein 6),DRSC00471,134,125,,
dsh (dishevelled),DRSC19803,112,90.5,,
CG31802,DRSC02459,101,91.2,,
JYalpha (retired record) + JYalpha,DRSC21700,141,69.3,,
Hou (Houki),DRSC20001,180,165,,
Hou (Houki),DRSC22347,87.8,235,,
mRpL18 (mitochondrial ribosomal protein L18),DRSC06142,57.8 (active),201,,
eIF3j (eukaryotic translation initiation factor 3 subunit j),DRSC06107,215,161,,
l(3)87Df (lethal (3) 87Df),DRSC16982,123,124,,
mip130 (Myb-interacting protein 130),DRSC18575,120,165,,
Ak6 (Adenylate kinase 6),DRSC07274,113,234,,
Ir94e (Ionotropic receptor 94e),DRSC15229,205,119,7742,139
Lk6 (Lk6 kinase),DRSC16728,157,136,,
CG11811,DRSC09862,56,88.1,,
CG30334,DRSC05345,103,136,,
CG1578,DRSC19729,130,128,,
Tdrd3 (Tudor domain containing 3),DRSC10016,119,130,,
Pus10 (Pseudouridine synthase 10),DRSC00629,87.3,128,,
CG14218,DRSC19575,205,93.2,6405,181
nvd (neverland),DRSC22139,72.3,165,,
CAH5 (Carbonic anhydrase 5),DRSC15372,220,134,,
CG15764,DRSC18070,208,136,,
CG12898,DRSC06213,125,137,,
Oseg1 (Outer segment 1),DRSC10776,74.4 (active),89.2,,
CG13282,DRSC02254,77.2 (active),90.9,,
sdk (sidekick),DRSC18831,114,197,,
CG12971,DRSC11681,64.9 (active),174,,
CG14369,DRSC14831,142,176,,
Tpr2 (Tetratricopeptide repeat protein 2),DRSC03461,93.1,118,,
awd (abnormal wing discs),DRSC16906,76.9,109,,
CG32376,DRSC22754,109,173,,
nan (nanchung),DRSC10551,80.6,157,,
tna (tonalli),DRSC10937,61.7,71.4,,
tna (tonalli),DRSC23236,98,135,,
CG18480,DRSC01957,89.8,97.4,,
Orco (Odorant receptor co-receptor),DRSC12358,152,155,,
mRpS17 (mitochondrial ribosomal protein S17),DRSC04463,89.2,148,,
CG7987,DRSC16357,117,123,,
Dus4 (Dihydrouridine synthase 4),DRSC02066,131,122,,

A stretch taken from the entries so far, as a working copy:
gene knocked down,DRSC id,"calcium signal, replicate 1","calcium signal, replicate 2","retest calcium signal, replicate 1","retest calcium signal, replicate 2"
nvd (neverland),DRSC22139,72.3,165,,
CAH5 (Carbonic anhydrase 5),DRSC15372,220,134,,
CG15764,DRSC18070,208,136,,
CG12898,DRSC06213,125,137,,
Oseg1 (Outer segment 1),DRSC10776,74.4 (active),89.2,,
CG13282,DRSC02254,77.2 (active),90.9,,
sdk (sidekick),DRSC18831,114,197,,
